Data on two molecules can be found in publication doi:10.1101/2025.11.18.689056.

Results are given in words; binding and its absence hold for the method and conditions named. In cells and extracts the contact can be indirect. Some binding calls cover weakened binding; strength is not graded here.

In test [1] the target is PRP8 (Pre-mRNA processing factor 8) (human (endogenous in MCF7)) (UniProt Q6P2Q9). The experiment in a line: co-IP.
In test [2] the target is FRG1 (FSHD Region Gene 1) (human (endogenous in MCF7)) (UniProt Q14331). The test can be described thus: co-IP.

B1: CWC22 (Spliceosome associated protein homolog) (protein, UniProt Q9HCG8 1-908)
chain: MKSSVAQIKPSSGHDRRENLNSYQRNSSPEDRYEEQERSPRDRDYFDYSRSDYEHSRRGRSYDSSMESRNRDREKRRERERDTDRKRSRKSPSPGRRNPETSVTQSSSAQDEPATKKKKDELDPLLTRTGGAYIPPAKLRMMQEQITDKNSLAYQRMSWEALKKSINGLINKVNISNISIIIQELLQENIVRGRGLLSRSVLQAQSASPIFTHVYAALVAIINSKFPQIGELILKRLILNFRKGYRRNDKQLCLTASKFVAHLINQNVAHEVLCLEMLTLLLERPTDDSVEVAIGFLKECGLKLTQVSPRGINAIFERLRNILHESEIDKRVQYMIEVMFAVRKDGFKDHPIILEGLDLVEEDDQFTHMLPLEDDYNPEDVLNVFKMDPNFMENEEKYKAIKKEILDEGDTDSNTDQDAGSSEEDEEEEEEEGEEDEEGQKVTIHDKTEINLVSFRRTIYLAIQSSLDFEECAHKLLKMEFPESQTKELCNMILDCCAQQRTYEKFFGLLAGRFCMLKKEYMESFEGIFKEQYDTIHRLETNKLRNVAKMFAHLLYTDSLPWSVLECIKLSEETTTSSSRIFVKIFFQELCEYMGLPKLNARLKDETLQPFFEGLLPRDNPRNTRFAINFFTSIGLGGLTDELREHLKNTPKVIVAQKPDVEQNKSSPSSSSSASSSSESDSSDSDSDSSDSSSESSSEESDSSSISSHSSASANDVRKKGHGKTRSKEVDKLIRNQQTNDRKQKERRQEHGHQETRTERERRSEKHRDQNSSGSNWRDPITKYTSDKDVPSERNNYSRVANDRDQEMHIDLENKHGDPKKKRGERRNSFSENEKHTHRIKDSENFRRKDRSKSKEMNRKHSGSRSDEDRYQNGAERRWEKSSRYSEQSRESKKNQDRRREKSPAKQK
In the case of B1, the binding result in test [1] is on record as “binds”.

B2: UPF1 (Up-frameshift Protein 1) (protein, UniProt Q92900 1-1129)
chain: MSVEAYGPSSQTLTFLDTEEAELLGADTQGSEFEFTDFTLPSQTQTPPGGPGGPGGGGAGGPGGAGAGAAAGQLDAQVGPEGILQNGAVDDSVAKTSQLLAELNFEEDEEDTYYTKDLPIHACSYCGIHDPACVVYCNTSKKWFCNGRGNTSGSHIVNHLVRAKCKEVTLHKDGPLGETVLECYNCGCRNVFLLGFIPAKADSVVVLLCRQPCASQSSLKDINWDSSQWQPLIQDRCFLSWLVKIPSEQEQLRARQITAQQINKLEELWKENPSATLEDLEKPGVDEEPQHVLLRYEDAYQYQNIFGPLVKLEADYDKKLKESQTQDNITVRWDLGLNKKRIAYFTLPKTDSGNEDLVIIWLRDMRLMQGDEICLRYKGDLAPLWKGIGHVIKVPDNYGDEIAIELRSSVGAPVEVTHNFQVDFVWKSTSFDRMQSALKTFAVDETSVSGYIYHKLLGHEVEDVIIKCQLPKRFTAQGLPDLNHSQVYAVKTVLQRPLSLIQGPPGTGKTVTSATIVYHLARQGNGPVLVCAPSNIAVDQLTEKIHQTGLKVVRLCAKSREAIDSPVSFLALHNQIRNMDSMPELQKLQQLKDETGELSSADEKRYRALKRTAERELLMNADVICCTCVGAGDPRLAKMQFRSILIDESTQATEPECMVPVVLGAKQLILVGDHCQLGPVVMCKKAAKAGLSQSLFERLVVLGIRPIRLQVQYRMHPALSAFPSNIFYEGSLQNGVTAADRVKKGFDFQWPQPDKPMFFYVTQGQEEIASSGTSYLNRTEAANVEKITTKLLKAGAKPDQIGIITPYEGQRSYLVQYMQFSGSLHTKLYQEVEIASVDAFQGREKDFIILSCVRANEHQGIGFLNDPRRLNVALTRARYGVIIVGNPKALSKQPLWNHLLNYYKEQKVLVEGPLNNLRESLMQFSKPRKLVNTINPGARFMTTAMYDAREAIIPGSVYDRSSQGRPSSMYFQTHDQIGMISAGPSHVAAMNIPIPFNLVMPPMPPPGYFGQANGPAAGRGTPKGKTGRGGRQKNRFGLPGPSQTNLPNSQASQDVASQPFSQGALTQGYISMSQPSQMSQPGLSQPELSQDSYLGDEFKSQIDVALSQDSTYQGERAYQHGGVTGLSQY
Take B2: the binding entry in test [2] is listed as “binds”.
